Source: publication doi:10.1101/178947
Results are given in words; binding and its absence hold for the method and conditions named. In cells and extracts the contact can be indirect. Some entries that bind do so weakly or less than the wild type. Sequences can lack the tags named with a protein.

Molecular target: T1, Sbh1-HA (S. cerevisiae) (UniProt P52870)
T1 sequence: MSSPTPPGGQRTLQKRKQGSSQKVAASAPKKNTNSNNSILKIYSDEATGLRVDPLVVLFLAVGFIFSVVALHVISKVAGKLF
Assay: co-IP

binding: binds
B1: Sec61 (endogenous) (protein, UniProt P32915 1-480)
chain: MSSNRVLDLFKPFESFLPEVIAPERKVPYNQKLIWTGVSLLIFLILGQIPLYGIVSSETSDPLYWLRAMLASNRGTLLELGVSPIITSSMIFQFLQGTQLLQIRPESKQDRELFQIAQKVCAIILILGQALVVVMTGNYGAPSDLGLPICLLLIFQLMFASLIVMLLDELLSKGYGLGSGISLFTATNIAEQIFWRAFAPTTVNSGRGKEFEGAVIAFFHLLAVRKDKKRALVEAFYRTNLPNMFQVLMTVAIFLFVLYLQGFRYELPIRSTKVRGQIGIYPIKLFYTSNTPIMLQSALTSNIFLISQILFQKYPTNPLIRLIGVWGIRPGTQGPQMALSGLAYYIQPLMSLSEALLDPIKTIVYITFVLGSCAVFSKTWIEISGTSPRDIAKQFKDQGMVINGKRETSIYRELKKIIPTAAAFGGATIGALSVGSDLLGTLGSGASILMATTTIYGYYEAAAKEGGFTKNLVPGFSDLM
